Assay results: US20140363830A1, “COMPOUNDS THAT MODULATE HSP90 ACTIVITY AND METHODS FOR IDENTIFYING SAME” (SYNTA PHARMACEUTICALS CORP., priority 2006, published 2014)
Some of these results come from one statement about several compounds together.

System: Hsp90
Experiment: Fluorescent staining of Her2 on the surface of treated cells (FACS); IC50 range for Hsp90 inhibition
Type: cell-based, Human
Conditions: anti-Her2-FITC staining, FACSCalibur

IC50, ≥ 10 µM:
COc1cccc(-n2c(S)nnc2-c2ccc(O)cc2O)c1 [Compound 21, 3-(2,4-Dihydroxyphenyl)-4-(3-methoxyphenyl)-5-mercapto-[1,2,4]triazole]
COc1ccc(-n2c(S)nnc2-c2ccc(O)cc2O)cc1 [Compound 22, 3-(2,4-Dihydroxyphenyl)-4-(4-methoxyphenyl)-5-mercapto-[1,2,4]triazole]
Cc1cc(-n2c(S)nnc2-c2ccc(O)cc2O)c2ccccc2n1 [Compound 51, 3-(2,4-Dihydroxyphenyl)-4-(2-methyl-quinolin-4-yl)-5-mercapto-[1,2,4]triazole]
CCn1cc(-c2nnc(S)n2-c2cccc3ccccc23)c(O)cc1=O [Compound 59, 3-(1-ethyl-4-hydroxy-6-oxo-1,6-dihydro-pyridin-3-yl)-4-(naphthalen-1-yl)-5-mercapto-[1,2,4]triazole]
CC(C)(C)c1cc(-n2c(S)nnc2-c2ccc(O)cc2O)cc(C(C)(C)C)c1 [Compound 61, 3-(2,4-Dihydroxy-phenyl)-4-(3,5-di-tert-butylphenyl)-5-mercapto-[1,2,4]triazole]
Oc1nc(O)c(-c2nnc(S)n2-c2cccc3ccccc23)cc1F [Compound 62, 3-(2,6-Dihydroxy5-fluoro-pyridin-3-yl) 4-(naphthalen-1-yl)-5-mercapto-[1,2,4]triazole]
[O-][n+]1ccc(-c2nnc(S)n2-c2cccc3ccccc23)c(O)c1 [Compound 98, 3-(1-Oxo-3-hydroxy-pyridin-4-yl)-4-(naphthalen-1-yl)-5-mercapto-[1,2,4]triazole]
O=C(O)c1cc(O)c(-c2nnc(S)n2-c2cccc3ccccc23)cc1O [Compound 99, 3-(2,5-Dihydroxy-4-carboxy)-4-(naphthalen-1-yl)-5-mercapto-[1,2,4]triazole]
